# Test results from PMC12090600.
# Target: TgCDPK3-GST (Toxoplasma gondii (ME49 strain))
# Test: affinity purification with mass spectrometry; purified GST-TgCDPK3 incubated with mouse macrophage cell line lysates; SDS-PAGE, silver stain, mass spectrometry; only the target purified
binder,measurement,value
"Arginase-1 (endogenous, mouse) (enzyme, UniProt Q61176 1-323) MSSKPKSLEIIGAPFSKGQPRGGVEKGPAALRKAGLLEKLKETEYDVRDHGDLAFVDVPNDSSFQIVKNPRSVGKANEELAGVVAEVQKNGRVSVVLGGDHSLAVGSISGHARVHPDLCVIWVDAHTDINTPLTTSSGNLHGQPVSFLLKELKGKFPDVPGFSWVTPCISAKDIVYIGLRDVDPGEHYIIKTLGIKYFSMTEVDKLGIGKVMEETFSYLLGRKKRPIHLSFDVDGLDPAFTPATGTPVLGGLSYREGLYITEEIYKTGLLSGLDIMEVNPTLGKTAEEVKSTVNTAVALTLACFGTQREGNHKPGTDYLKPPK",binding,binds

# Results are given in words; binding and its absence hold for the method and conditions named. In cells and extracts the contact can be indirect. Here binding means that the protein was enriched with, or labelled near, the bait; the list need not be complete.
